Laboratory results: PubChem BioAssay AID686943 (Drosophila RNAi Screening Center, 2013)

Screen: 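Search across the genome for regulators of signalling from receptor tyrosine kinase to ERK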 (primary screen)
Cell system: Drosophila S2R+ haemocyte-like cells expressing YFP-tagged ERK (Rolled)
Knock-down reagent: long dsRNA against Drosophila genes
Treatment: insulin stimulation versus unstimulated cells; dose and duration not given
Measurement: 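Antibody staining for doubly phosphorylated ERK divided by ERK-YFP signal, as plate z-scores, in insulin-treated and untreated cells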
Scale: replicate 1, z-score of dpERK with insulin: higher = more active ERK per ERK-YFP after insulin
The deposit covers about 23,000 reagents; below is a random part of those that have a named target and a result. 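Extra replicates exist only for a retested subset of genes; insulin dose and duration not given; both raised and lowered dpERK matter.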 A plus sign joins genes that one reagent is predicted to hit. Not all columns of the deposit are shown. Reagent sequences are not shown. Not given: the amount of reagent, the time to read-out.

With TBC1D23 [DRSC00657], how do the results read?
replicate 1, z-score of dpERK with insulin: 0.07

For CG3065 [DRSC04333], what was measured?
replicate 1, z-score of dpERK with insulin: -0.09

With tpr [DRSC04468], what does the deposit list?
replicate 1, z-score of dpERK with insulin: -0.65

Which result is listed for CG5902 [DRSC15912]?
replicate 1, z-score of dpERK with insulin: 0.31

Which result is listed for CG3544 [DRSC00613]?
replicate 1, z-score of dpERK with insulin: -0.29

With Agxt [DRSC18718], what does the deposit list?
replicate 1, z-score of dpERK with insulin: 0.46

For shd [DRSC11129], what does the deposit list?
replicate 1, z-score of dpERK with insulin: -0.77

Which result is listed for CG11317 [DRSC14299]?
replicate 1, z-score of dpERK with insulin: -0.38

For CG3009 [DRSC18263], how do the results read?
replicate 1, z-score of dpERK with insulin: -0.54

Which result is listed for tap [DRSC11402]?
replicate 1, z-score of dpERK with insulin: 0.1

How did the screen score CG9706 [DRSC11095]?
replicate 1, z-score of dpERK with insulin: -0.01

What is on record for ct [DRSC18757]?
replicate 1, z-score of dpERK with insulin: -0.17

How did the screen score CG13473 [DRSC10017]?
replicate 1, z-score of dpERK with insulin: 0.29

What is on record for CG10874 [DRSC00297]?
replicate 1, z-score of dpERK with insulin: -0.78

With CG32756 [DRSC22505], how do the results read?
replicate 1, z-score of dpERK with insulin: -0.06

What did the screen give for CG33453 [DRSC05782]?
replicate 1, z-score of dpERK with insulin: -0.3

With CG31559 [DRSC12172], what was measured?
replicate 1, z-score of dpERK with insulin: 0.05

With CG31559 [DRSC12270], what was measured?
replicate 1, z-score of dpERK with insulin: 0.38

Which result is listed for CG7289 [DRSC00697]?
replicate 1, z-score of dpERK with insulin: 0.63

Which result is listed for CG14829 [DRSC10199]?
replicate 1, z-score of dpERK with insulin: 0.86

What is on record for COX7C [DRSC06831]?
replicate 1, z-score of dpERK with insulin: -0.52

What did the screen give for Cp110 [DRSC20630]?
replicate 1, z-score of dpERK with insulin: -0.61

With Cp110 [DRSC21716], how do the results read?
replicate 1, z-score of dpERK with insulin: 1.12

For MICU1 [DRSC02752], how do the results read?
replicate 1, z-score of dpERK with insulin: -0.82

What is on record for CG13461 [DRSC10008]?
replicate 1, z-score of dpERK with insulin: -0.77

With Idh [DRSC10779], what does the deposit list?
replicate 1, z-score of dpERK with insulin: -0.21

How did the screen score Enoph [DRSC12201]?
replicate 1, z-score of dpERK with insulin: 1.58

What is on record for CoRest [DRSC19881]?
replicate 1, z-score of dpERK with insulin: -3.05

With CoRest [DRSC21626], how do the results read?
replicate 1, z-score of dpERK with insulin: 0.2

With CoRest [DRSC22305], what does the deposit list?
replicate 1, z-score of dpERK with insulin: -0.77

With CG18787 + CG18789 [DRSC02698], how do the results read?
replicate 1, z-score of dpERK with insulin: -0.82
